Assay results: US20050076398A1, “Animal model of chronic stress diseases and method for producing the same” (Ajinomoto Co., Inc., priority 2002, published 2005)

Tested on: lysine deficient rats
Experiment: Effect of a medicine on abnormal bowel movement of lysine deficient rats (carmine dye feces count)
Type: in vivo, rats (male Wistar)
Conditions: oral administration with carmine dye; rats fed low lysine diet 7 days, fasted one day; Dunnett's method

For `CN1C(=O)CN=C(c2ccccc2)c2cc(Cl)ccc21` [Diazepam], which “acceleration of the excretion of carmine-containing feces” value is on record?
Its value is “significantly control the acceleration of the excretion of the feces”.

With `CN1[C@@H]2CC[C@H]1C[C@@H](OC(=O)C(CO)c1ccccc1)C2` (some centres unmarked) [Atropine] as the molecule, how does the “acceleration of the excretion of carmine-containing feces” value read?
The value was “significantly control the acceleration of the excretion of the feces”.
